The values below come from paper doi:10.1101/2025.01.25.634844.

Protein sequences, listed by entry. Tags and fused reporters are not part of them. Residues count along the entry.
UniProt O75923, 1-2017: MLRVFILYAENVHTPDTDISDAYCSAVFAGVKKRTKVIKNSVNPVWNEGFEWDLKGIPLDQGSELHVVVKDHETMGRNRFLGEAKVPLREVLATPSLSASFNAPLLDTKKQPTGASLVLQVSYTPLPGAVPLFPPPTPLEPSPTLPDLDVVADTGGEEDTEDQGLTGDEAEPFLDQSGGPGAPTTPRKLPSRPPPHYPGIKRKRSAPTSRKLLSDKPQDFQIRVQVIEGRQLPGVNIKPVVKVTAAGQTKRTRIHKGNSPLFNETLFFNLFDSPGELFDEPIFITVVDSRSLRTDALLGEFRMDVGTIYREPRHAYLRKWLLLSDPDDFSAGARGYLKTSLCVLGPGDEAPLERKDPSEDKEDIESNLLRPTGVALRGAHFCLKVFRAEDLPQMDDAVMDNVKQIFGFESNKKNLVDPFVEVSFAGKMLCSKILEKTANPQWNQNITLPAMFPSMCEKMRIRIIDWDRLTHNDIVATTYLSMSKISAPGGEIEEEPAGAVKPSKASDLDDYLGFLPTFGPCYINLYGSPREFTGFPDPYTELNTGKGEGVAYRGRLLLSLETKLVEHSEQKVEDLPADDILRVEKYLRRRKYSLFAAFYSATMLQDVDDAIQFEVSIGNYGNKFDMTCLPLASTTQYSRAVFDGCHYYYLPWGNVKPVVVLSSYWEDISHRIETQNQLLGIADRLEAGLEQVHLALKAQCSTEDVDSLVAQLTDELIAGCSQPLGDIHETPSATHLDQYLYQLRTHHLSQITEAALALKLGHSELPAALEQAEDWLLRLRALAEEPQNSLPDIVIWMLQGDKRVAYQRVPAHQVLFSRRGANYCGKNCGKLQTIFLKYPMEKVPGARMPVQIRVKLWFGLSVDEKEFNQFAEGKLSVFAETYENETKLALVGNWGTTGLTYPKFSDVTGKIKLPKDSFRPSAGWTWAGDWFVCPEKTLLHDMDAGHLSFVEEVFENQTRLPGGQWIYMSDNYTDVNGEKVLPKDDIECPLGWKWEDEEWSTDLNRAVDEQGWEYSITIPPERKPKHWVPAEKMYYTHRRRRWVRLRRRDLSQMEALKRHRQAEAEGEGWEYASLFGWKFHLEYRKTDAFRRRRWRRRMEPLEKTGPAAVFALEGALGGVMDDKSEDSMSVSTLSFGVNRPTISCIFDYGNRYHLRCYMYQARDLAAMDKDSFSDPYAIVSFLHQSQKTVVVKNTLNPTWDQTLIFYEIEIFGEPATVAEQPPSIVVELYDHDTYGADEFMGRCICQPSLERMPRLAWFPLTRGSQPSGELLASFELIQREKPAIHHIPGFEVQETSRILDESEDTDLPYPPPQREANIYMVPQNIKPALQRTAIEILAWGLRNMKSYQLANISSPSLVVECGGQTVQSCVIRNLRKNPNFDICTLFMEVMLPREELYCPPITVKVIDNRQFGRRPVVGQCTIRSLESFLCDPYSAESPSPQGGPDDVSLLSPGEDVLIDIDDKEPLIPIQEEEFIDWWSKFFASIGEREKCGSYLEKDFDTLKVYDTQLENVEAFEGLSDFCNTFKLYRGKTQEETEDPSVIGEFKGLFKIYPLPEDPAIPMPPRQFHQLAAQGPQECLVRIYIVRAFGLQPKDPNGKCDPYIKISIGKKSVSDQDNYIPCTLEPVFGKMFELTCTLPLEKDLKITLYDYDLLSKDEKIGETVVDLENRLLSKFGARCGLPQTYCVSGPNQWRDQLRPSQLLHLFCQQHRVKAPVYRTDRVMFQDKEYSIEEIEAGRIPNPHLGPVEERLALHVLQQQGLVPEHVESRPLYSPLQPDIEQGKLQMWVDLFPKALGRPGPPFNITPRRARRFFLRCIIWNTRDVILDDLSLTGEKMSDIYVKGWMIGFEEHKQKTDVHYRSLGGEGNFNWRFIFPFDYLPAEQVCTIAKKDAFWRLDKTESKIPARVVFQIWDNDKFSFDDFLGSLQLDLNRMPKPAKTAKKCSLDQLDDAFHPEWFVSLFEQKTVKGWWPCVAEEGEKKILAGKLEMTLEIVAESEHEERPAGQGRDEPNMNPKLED
UniProt Q9NZM1, 1-1997: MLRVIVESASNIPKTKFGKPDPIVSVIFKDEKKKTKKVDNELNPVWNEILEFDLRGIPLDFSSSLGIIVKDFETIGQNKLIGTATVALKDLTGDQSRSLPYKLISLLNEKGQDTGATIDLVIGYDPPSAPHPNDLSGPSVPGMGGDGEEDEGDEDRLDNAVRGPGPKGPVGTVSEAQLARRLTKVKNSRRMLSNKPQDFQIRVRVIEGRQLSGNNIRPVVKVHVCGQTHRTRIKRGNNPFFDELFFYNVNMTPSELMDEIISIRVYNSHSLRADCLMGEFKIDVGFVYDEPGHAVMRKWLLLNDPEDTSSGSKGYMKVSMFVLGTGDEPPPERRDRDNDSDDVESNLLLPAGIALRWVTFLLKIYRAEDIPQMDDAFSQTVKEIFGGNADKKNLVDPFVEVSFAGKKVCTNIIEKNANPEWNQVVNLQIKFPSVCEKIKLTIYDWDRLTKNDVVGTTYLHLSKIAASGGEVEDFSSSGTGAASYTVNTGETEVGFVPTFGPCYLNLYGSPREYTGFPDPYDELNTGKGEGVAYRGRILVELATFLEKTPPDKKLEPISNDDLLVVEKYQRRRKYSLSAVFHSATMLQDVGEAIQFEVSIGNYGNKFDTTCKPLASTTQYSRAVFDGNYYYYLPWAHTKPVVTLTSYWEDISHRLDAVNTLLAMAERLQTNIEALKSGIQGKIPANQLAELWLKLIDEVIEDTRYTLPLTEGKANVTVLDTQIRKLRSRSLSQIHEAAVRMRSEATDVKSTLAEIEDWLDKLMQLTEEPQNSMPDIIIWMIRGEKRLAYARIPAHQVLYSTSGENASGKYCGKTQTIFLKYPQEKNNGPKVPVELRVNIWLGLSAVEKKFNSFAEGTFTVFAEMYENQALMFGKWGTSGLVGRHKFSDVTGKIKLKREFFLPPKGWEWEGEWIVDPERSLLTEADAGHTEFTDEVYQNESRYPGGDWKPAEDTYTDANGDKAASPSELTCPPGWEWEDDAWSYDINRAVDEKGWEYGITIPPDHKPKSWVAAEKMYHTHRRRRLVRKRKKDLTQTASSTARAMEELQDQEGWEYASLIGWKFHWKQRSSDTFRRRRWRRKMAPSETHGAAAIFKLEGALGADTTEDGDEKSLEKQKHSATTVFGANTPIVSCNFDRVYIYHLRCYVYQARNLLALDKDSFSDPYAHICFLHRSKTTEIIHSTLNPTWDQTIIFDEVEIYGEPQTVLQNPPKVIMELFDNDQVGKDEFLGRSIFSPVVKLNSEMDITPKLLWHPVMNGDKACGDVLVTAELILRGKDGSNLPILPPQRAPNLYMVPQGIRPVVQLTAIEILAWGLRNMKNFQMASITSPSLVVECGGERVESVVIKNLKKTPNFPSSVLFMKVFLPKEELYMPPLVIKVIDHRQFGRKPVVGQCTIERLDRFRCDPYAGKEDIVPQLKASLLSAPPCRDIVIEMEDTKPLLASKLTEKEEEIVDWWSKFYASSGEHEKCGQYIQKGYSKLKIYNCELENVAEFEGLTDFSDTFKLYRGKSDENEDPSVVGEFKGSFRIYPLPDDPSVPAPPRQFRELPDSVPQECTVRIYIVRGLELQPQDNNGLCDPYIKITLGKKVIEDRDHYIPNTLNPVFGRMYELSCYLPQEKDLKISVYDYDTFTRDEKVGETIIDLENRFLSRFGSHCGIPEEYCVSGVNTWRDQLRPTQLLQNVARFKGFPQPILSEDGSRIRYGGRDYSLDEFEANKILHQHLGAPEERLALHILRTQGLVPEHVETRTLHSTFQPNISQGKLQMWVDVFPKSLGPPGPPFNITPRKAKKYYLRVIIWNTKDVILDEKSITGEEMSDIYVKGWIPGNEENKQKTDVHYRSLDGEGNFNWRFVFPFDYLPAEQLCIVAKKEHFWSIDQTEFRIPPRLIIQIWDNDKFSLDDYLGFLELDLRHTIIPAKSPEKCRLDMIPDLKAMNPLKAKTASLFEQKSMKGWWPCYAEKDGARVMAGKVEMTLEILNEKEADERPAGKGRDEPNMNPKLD

The target in experiment [1] is soluble dysferlin (residues 1-2017) (human) (UniProt O75923). Description: SEC.
The target of experiment [2] is soluble myoferlin (residues 1-1997) (human) (UniProt Q9NZM1). The experiment can be described thus: SEC. (SEC sorts molecules by how far they enter the pores of the column.)

These are yes or no findings as the source states them, for the method shown.

On to “soluble dysferlin (residues 1-2017) (from UniProt O75923-1 1-2017) (domain or fragment)”, for which the binding result in experiment [1] was “no binding”.

“soluble myoferlin (residues 1-1997) (from UniProt Q9NZM1-1 1-1997) (domain or fragment)”: in experiment [2], the binding entry is “no binding”.
